Values of other authors in US20250090698A1, “SMALL MOLECULE INHIBITORS FOR EARLY DIAGNOSIS OF PROSTATE SPECIFIC MEMBRANE ANTIGEN CANCERS AND NEURODEGENERATIVE DISEASES” (INDIAN INSTITUTE OF TECHNOLOGY INDORE, priority 2018, published 2025).
Like-named read-outs stand apart in the source and are kept apart here. The structures given here were assigned with low confidence; some may be wrong.

Protein sequences, listed by entry. Tags and fused reporters are not part of them.
UniProt Q04609, whole entry: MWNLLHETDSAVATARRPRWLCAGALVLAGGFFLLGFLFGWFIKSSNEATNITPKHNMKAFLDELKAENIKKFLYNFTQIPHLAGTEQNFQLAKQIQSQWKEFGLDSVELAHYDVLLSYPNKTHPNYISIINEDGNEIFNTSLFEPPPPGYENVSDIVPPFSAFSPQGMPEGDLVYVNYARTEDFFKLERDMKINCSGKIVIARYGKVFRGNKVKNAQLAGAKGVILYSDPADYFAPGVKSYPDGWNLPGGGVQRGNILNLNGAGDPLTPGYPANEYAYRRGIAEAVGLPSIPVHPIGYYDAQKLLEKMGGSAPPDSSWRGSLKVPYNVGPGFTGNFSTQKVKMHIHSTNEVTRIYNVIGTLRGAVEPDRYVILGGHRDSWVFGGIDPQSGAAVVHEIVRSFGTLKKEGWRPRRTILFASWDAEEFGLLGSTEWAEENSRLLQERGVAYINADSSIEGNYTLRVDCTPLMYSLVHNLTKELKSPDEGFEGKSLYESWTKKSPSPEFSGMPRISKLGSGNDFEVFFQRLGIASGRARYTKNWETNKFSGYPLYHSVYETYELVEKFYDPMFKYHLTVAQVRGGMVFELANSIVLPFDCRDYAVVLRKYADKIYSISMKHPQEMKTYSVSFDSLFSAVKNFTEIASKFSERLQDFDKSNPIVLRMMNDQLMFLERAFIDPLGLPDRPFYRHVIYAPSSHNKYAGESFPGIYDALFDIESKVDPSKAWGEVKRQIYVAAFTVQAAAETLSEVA

Target: PSMA (Homo sapiens, UniProt Q04609)
Conditions: cited from earlier work

| SMILES | Kd (DUPA conjugates with different peptide spacers) | Kd (DUPA conjugates, as repeated in text) |
| --- | --- | --- |
| CCC(C)C(NCC(=O)NC(CCC(=O)O)C(=O)O)C(=O)O (centres unmarked) | 102 nM |  |
| O=C(O)CCC(NC(=O)CNC(CC(=O)O)C(=O)O)C(=O)O (centres unmarked) |  | 338 nM |
